PMC8741850

Target: T1, HA-C/EBPβ (WT), overexpressed in NRCMs (UniProt P21272)
T1 sequence (looked up, limits assumed): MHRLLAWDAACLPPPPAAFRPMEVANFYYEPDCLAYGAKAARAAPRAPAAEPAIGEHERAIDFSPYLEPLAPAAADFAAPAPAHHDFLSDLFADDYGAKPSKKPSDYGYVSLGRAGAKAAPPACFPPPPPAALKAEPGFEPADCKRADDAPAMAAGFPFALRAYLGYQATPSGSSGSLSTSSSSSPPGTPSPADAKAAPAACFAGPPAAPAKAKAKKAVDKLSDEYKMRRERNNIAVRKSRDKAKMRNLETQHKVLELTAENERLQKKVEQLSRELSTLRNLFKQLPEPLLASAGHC
Assay: EMSA
Settings: nuclear extract of NRCMs overexpressing HA-WT C/EBPβ, control without PARP1 siRNA or inhibitor; EMSA (LightShift): 5 μg nuclear protein, 1 μg poly(dI-dC), 0.05% NP-40, 5 mM MgCl2, 2.5% glycerol, room temperature 10 + 20 min; 6% non-denaturing gel; protein in an extract; protein details: HA; label: 3'-biotin

“CGCCTTATTGCGCAATTGCCGC (double strand) [biotin-labeled C/EBPβ probe]”: binds.

Construct, isoform or probe ends are uncertain for at least one entry. Results from cells or extracts need not show a direct contact. At least one verdict was read from the data and is not stated in words by the source. Where a protein sequence is shown, tags need not be part of it.
